Results are given in words; binding and its absence hold for the method and conditions named. For some of these results: Binding seen in cells or lysates may run through a third protein. Some results given as binding are weak or reduced against the parent protein; the word gives no strength. One block for each molecule: values may come before it.
Assays:
[1] = target: RelA (human (endogenous in PC-3)) (UniProt Q04206); test: proximity ligation; Duolink PLA in PC-3 cells on glass slides with primary antibodies against Sp1 and NF-κB family members; read at 24 and 48 h; parthenolide (PTL) used as inhibitor
[2] = target: T1, RelB (human (endogenous in PC-3)) (UniProt Q01201); test: as above
T1 sequence: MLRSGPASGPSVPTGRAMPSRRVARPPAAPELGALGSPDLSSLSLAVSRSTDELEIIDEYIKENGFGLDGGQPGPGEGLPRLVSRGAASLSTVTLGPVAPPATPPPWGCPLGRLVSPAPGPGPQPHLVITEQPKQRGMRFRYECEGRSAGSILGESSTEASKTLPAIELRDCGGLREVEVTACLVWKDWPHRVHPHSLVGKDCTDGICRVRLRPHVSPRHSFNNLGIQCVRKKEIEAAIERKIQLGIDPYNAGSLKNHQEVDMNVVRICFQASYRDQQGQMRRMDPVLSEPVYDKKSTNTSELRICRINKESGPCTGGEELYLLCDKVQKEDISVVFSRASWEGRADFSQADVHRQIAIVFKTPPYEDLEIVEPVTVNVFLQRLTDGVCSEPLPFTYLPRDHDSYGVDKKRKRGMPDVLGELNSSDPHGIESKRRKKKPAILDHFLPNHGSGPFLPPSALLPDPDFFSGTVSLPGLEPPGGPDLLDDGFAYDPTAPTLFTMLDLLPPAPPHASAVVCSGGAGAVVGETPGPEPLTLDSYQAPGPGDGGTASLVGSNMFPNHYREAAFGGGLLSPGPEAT

The chains behind the UniProt entries cited, without tags or fusion partners. Residues count along the entry.
UniProt Q04206: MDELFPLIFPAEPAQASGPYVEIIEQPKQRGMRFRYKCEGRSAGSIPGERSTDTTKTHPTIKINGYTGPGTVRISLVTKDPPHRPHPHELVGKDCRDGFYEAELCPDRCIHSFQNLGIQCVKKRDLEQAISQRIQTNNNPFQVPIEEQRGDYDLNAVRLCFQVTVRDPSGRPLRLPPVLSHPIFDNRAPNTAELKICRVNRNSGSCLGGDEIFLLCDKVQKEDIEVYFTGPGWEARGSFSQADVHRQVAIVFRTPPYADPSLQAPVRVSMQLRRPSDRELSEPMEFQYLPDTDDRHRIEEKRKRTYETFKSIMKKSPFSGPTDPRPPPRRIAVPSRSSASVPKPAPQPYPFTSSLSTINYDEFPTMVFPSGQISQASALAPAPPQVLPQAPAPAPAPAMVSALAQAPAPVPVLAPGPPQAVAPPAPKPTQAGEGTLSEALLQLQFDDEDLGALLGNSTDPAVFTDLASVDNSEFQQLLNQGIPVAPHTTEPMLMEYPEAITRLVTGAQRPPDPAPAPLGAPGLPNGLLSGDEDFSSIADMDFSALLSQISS
UniProt P08047: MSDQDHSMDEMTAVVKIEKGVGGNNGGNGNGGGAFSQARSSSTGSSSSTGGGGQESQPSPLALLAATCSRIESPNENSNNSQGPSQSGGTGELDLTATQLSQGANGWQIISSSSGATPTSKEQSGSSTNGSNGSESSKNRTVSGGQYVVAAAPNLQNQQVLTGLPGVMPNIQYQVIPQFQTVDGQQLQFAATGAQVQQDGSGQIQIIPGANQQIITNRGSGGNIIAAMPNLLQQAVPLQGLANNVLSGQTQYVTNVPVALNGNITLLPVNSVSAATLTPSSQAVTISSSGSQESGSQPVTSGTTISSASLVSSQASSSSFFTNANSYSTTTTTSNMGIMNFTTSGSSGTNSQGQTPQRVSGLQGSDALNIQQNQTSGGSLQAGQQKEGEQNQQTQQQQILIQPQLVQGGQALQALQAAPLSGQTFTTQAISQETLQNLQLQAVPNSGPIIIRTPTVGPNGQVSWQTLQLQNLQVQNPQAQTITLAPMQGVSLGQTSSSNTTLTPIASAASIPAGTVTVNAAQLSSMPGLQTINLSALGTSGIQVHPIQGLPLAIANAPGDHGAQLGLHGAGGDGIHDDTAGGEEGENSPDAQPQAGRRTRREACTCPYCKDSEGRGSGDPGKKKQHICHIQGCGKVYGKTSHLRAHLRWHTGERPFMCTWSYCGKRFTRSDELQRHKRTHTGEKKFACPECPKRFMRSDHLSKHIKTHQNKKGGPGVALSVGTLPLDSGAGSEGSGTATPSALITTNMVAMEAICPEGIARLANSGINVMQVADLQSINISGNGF
UniProt P19838, residues 1-433: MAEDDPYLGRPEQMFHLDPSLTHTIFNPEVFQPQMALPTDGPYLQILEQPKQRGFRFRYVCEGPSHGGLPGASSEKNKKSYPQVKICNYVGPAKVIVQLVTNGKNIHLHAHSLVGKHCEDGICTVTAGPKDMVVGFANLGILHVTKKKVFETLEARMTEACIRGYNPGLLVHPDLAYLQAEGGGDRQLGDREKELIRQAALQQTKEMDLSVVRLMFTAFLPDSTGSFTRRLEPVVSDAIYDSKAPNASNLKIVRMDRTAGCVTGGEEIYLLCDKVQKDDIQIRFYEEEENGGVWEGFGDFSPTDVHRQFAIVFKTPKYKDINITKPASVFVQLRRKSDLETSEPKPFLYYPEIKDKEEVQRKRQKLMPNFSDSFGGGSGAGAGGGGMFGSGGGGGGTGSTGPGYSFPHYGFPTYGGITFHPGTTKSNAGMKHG

[3] = target: T2, RelB (ectopically expressed in LNCaP cells) (human) (UniProt Q01201); test: co-IP; ChIP: chromatin from RelB-overexpressing LNCaP cells precipitated with a RelB antibody (IgG as negative control, PTL as inhibitor); proteins in the precipitate by immunoblot
T2 sequence: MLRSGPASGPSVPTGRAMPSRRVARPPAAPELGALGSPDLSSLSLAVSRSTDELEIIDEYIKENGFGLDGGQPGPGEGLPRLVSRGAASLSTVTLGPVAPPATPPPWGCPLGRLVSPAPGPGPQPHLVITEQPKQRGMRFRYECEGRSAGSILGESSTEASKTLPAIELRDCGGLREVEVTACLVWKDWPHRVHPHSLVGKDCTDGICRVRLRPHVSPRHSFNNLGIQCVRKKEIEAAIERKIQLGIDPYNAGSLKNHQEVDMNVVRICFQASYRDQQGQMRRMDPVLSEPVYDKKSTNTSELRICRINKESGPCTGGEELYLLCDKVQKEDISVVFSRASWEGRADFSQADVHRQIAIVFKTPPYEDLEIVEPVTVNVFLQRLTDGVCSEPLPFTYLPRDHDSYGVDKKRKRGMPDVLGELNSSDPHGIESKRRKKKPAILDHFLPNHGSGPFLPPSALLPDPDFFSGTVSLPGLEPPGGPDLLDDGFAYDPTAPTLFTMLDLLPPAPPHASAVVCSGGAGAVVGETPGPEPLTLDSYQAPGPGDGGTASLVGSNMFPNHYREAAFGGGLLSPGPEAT

[4] = target: T1, RelB (human (endogenous in PC-3)); test: proximity ligation; Duolink PLA in PC-3 cells on glass slides with primary antibodies against Sp1 and NF-κB family members; read at 24 and 48 h; parthenolide (PTL) used as inhibitor; remark: listed apart in the source
[5] = target: T1, RelB (human (endogenous in PC-3)); test: co-IP; ChIP: chromatin from PC-3 cells precipitated with a RelB antibody; proteins in the precipitate by immunoblot
[6] = target: T3, RelB-GAL4 (human) (UniProt Q01201); test: two-hybrid; CheckMate mammalian two-hybrid: RelB-GAL4 and NFAT1c-VP16 co-transfected with a GAL4-TATA luciferase reporter; luciferase normalised to β-gal
T3 sequence: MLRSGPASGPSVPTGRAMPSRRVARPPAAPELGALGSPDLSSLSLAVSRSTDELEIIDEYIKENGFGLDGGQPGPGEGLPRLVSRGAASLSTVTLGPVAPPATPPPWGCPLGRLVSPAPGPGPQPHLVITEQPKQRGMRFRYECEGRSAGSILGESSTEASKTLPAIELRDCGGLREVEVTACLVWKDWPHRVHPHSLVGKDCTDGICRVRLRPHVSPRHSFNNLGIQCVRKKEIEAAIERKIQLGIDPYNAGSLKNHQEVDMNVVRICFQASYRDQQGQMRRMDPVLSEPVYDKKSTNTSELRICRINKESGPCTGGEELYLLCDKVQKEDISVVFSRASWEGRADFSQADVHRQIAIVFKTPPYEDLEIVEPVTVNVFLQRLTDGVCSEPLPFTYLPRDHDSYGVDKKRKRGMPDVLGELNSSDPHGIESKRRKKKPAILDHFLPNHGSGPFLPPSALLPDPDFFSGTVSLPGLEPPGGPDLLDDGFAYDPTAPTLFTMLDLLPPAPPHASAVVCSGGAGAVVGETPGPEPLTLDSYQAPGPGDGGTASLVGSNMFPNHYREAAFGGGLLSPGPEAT

Molecule: Sp1 (from UniProt P08047 1-785)
binding [1]: binds
binding [2]: binds

Molecule: Sp1 (in LNCaP cells) (from UniProt P08047 1-785)
binding [3]: binds

Molecule: p50 (from UniProt P19838 1-433)
binding [1]: binds

Results, then the molecule that gave them:

binding [4]: binds
B1: p52 (protein, UniProt Q00653 1-454)
chain: MESCYNPGLDGIIEYDDFKLNSSIVEPKEPAPETADGPYLVIVEQPKQRGFRFRYGCEGPSHGGLPGASSEKGRKTYPTVKICNYEGPAKIEVDLVTHSDPPRAHAHSLVGKQCSELGICAVSVGPKDMTAQFNNLGVLHVTKKNMMGTMIQKLQRQRLRSRPQGLTEAEQRELEQEAKELKKVMDLSIVRLRFSAFLRASDGSFSLPLKPVISQPIHDSKSPGASNLKISRMDKTAGSVRGGDEVYLLCDKVQKDDIEVRFYEDDENGWQAFGDFSPTDVHKQYAIVFRTPPYHKMKIERPVTVFLQLKRKRGGDVSDSKQFTYYPLVEDKEEVQRKRRKALPTFSQPFGGGSHMGGGSGGAAGGYGGAGGGGSLGFFPSSLAYSPYQSGAGPMGCYPGGGGGAQMAATVPSRDSGEEAAEPSAPSRTPQCEPQAPEMLQRAREYNARLFGLA

binding [5]: binds
B2: NFATc1 (protein, UniProt O95644 1-943)
chain: MPSTSFPVPSKFPLGPAAAVFGRGETLGPAPRAGGTMKSAEEEHYGYASSNVSPALPLPTAHSTLPAPCHNLQTSTPGIIPPADHPSGYGAALDGGPAGYFLSSGHTRPDGAPALESPRIEITSCLGLYHNNNQFFHDVEVEDVLPSSKRSPSTATLSLPSLEAYRDPSCLSPASSLSSRSCNSEASSYESNYSYPYASPQTSPWQSPCVSPKTTDPEEGFPRGLGACTLLGSPRHSPSTSPRASVTEESWLGARSSRPASPCNKRKYSLNGRQPPYSPHHSPTPSPHGSPRVSVTDDSWLGNTTQYTSSAIVAAINALTTDSSLDLGDGVPVKSRKTTLEQPPSVALKVEPVGEDLGSPPPPADFAPEDYSSFQHIRKGGFCDQYLAVPQHPYQWAKPKPLSPTSYMSPTLPALDWQLPSHSGPYELRIEVQPKSHHRAHYETEGSRGAVKASAGGHPIVQLHGYLENEPLMLQLFIGTADDRLLRPHAFYQVHRITGKTVSTTSHEAILSNTKVLEIPLLPENSMRAVIDCAGILKLRNSDIELRKGETDIGRKNTRVRLVFRVHVPQPSGRTLSLQVASNPIECSQRSAQELPLVEKQSTDSYPVVGGKKMVLSGHNFLQDSKVIFVEKAPDGHHVWEMEAKTDRDLCKPNSLVVEIPPFRNQRITSPVHVSFYVCNGKRKRSQYQRFTYLPANVPIIKTEPTDDYEPAPTCGPVSQGLSPLPRPYYSQQLAMPPDPSSCLVAGFPPCPQRSTLMPAAPGVSPKLHDLSPAAYTKGVASPGHCHLGLPQPAGEAPAVQDVPRPVATHPGSPGQPPPALLPQQVSAPPSSSCPPGLEHSLCPSSPSPPLPPATQEPTCLQPCSPACPPATGRPQHLPSTVRRDESPTAGPRLLPEVHEDGSPNLAPIPVTVKREPEELDQLYLDDVNEIIRNDLSSTSTHS

binding [6]: binds
B3: NFAT1c-VP16 (protein, UniProt O95644 1-943)
chain: MPSTSFPVPSKFPLGPAAAVFGRGETLGPAPRAGGTMKSAEEEHYGYASSNVSPALPLPTAHSTLPAPCHNLQTSTPGIIPPADHPSGYGAALDGGPAGYFLSSGHTRPDGAPALESPRIEITSCLGLYHNNNQFFHDVEVEDVLPSSKRSPSTATLSLPSLEAYRDPSCLSPASSLSSRSCNSEASSYESNYSYPYASPQTSPWQSPCVSPKTTDPEEGFPRGLGACTLLGSPRHSPSTSPRASVTEESWLGARSSRPASPCNKRKYSLNGRQPPYSPHHSPTPSPHGSPRVSVTDDSWLGNTTQYTSSAIVAAINALTTDSSLDLGDGVPVKSRKTTLEQPPSVALKVEPVGEDLGSPPPPADFAPEDYSSFQHIRKGGFCDQYLAVPQHPYQWAKPKPLSPTSYMSPTLPALDWQLPSHSGPYELRIEVQPKSHHRAHYETEGSRGAVKASAGGHPIVQLHGYLENEPLMLQLFIGTADDRLLRPHAFYQVHRITGKTVSTTSHEAILSNTKVLEIPLLPENSMRAVIDCAGILKLRNSDIELRKGETDIGRKNTRVRLVFRVHVPQPSGRTLSLQVASNPIECSQRSAQELPLVEKQSTDSYPVVGGKKMVLSGHNFLQDSKVIFVEKAPDGHHVWEMEAKTDRDLCKPNSLVVEIPPFRNQRITSPVHVSFYVCNGKRKRSQYQRFTYLPANVPIIKTEPTDDYEPAPTCGPVSQGLSPLPRPYYSQQLAMPPDPSSCLVAGFPPCPQRSTLMPAAPGVSPKLHDLSPAAYTKGVASPGHCHLGLPQPAGEAPAVQDVPRPVATHPGSPGQPPPALLPQQVSAPPSSSCPPGLEHSLCPSSPSPPLPPATQEPTCLQPCSPACPPATGRPQHLPSTVRRDESPTAGPRLLPEVHEDGSPNLAPIPVTVKREPEELDQLYLDDVNEIIRNDLSSTSTHS

Source: article PMC11483529
